Measurements from PubChem BioAssay AID1259354 (Paczesny and Yang Labs, IUPUI and University of Michigan, 2018).
Among all 78,000 compounds or so, about 1,800 (2.3%) were called active. The shares of active, inactive and inconclusive entries below differ from those in the screen. Rule as the data show it: active = inhibition above about 30%; inconclusive = mostly about 10% to 28%; inactive = weaker than that.

The chains behind the UniProt entries cited, without tags or fusion partners. Where a name states a change or a piece, a line headed by the entry shows the natural chain unless it says otherwise.
UniProt Q01638: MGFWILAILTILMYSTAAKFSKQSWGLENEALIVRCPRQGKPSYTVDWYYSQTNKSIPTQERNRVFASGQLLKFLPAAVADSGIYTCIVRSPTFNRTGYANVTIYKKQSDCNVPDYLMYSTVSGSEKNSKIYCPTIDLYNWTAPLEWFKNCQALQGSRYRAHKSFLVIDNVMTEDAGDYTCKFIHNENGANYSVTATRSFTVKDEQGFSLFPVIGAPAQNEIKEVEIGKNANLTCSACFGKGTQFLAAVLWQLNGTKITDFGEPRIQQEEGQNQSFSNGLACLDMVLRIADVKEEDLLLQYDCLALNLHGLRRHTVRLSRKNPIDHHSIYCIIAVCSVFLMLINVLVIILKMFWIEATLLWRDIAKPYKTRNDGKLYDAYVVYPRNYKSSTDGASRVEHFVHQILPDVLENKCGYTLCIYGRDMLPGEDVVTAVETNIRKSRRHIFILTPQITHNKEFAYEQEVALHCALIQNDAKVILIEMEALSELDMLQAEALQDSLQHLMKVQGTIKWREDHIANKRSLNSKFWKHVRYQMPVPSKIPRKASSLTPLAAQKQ

biological target: Interleukin-1 receptor-like 1 (Homo sapiens) (UniProt Q01638); experiment: blocks human ST2 binding to IL-33, primary screen, biochemical, AlphaLISA (AID 1259354); settings: AlphaLISA ST2-Fc/biotin-IL-33 interaction, 1 h; at 17 µM, hits give high values

Structure (SMILES) | inhibition
CCOc1c(C(C)C)cc(N)cc1C(C)C | inconclusive: 14%
COc1ccccc1NC(=O)C(=O)NC1CCCCCC1 | inactive
CCOC(=O)c1c(NC(=O)c2cc3ccccc3oc2=O)sc2c1CCN(CC)C2 | active: 33%
Cc1nc2nc(SCc3cc(=O)n4c(C)cccc4n3)nn2c(C)c1Cc1ccccc1 | inactive
COc1ccccc1N=c1oc2ccccc2cc1C(=O)NC(C)=O | inactive
COc1ccc(S(=O)(=O)N2C[C@@H]3C[C@H](C2)c2ccc(NC(=O)c4cnccn4)c(=O)n2C3)cc1 | inactive
COc1cc([N+](=O)[O-])ccc1N=Cc1nc(-c2ccccc2)oc1O | inconclusive: 11%
CC(NC(=O)c1cc(-c2ccncc2)nc2ccccc12)c1ncn[nH]1 (stereo not given) | inactive
CC(=O)Nc1ccc(S(=O)(=O)Nc2ccc(F)cc2)cc1 | inactive
Nc1nccc(N2CCOC(C(F)(F)F)C2)n1 (stereo not given) | inconclusive: 15%
COCc1nnc(NC(=O)c2ccc(S(=O)(=O)N(C)Cc3ccccc3)cc2)o1 | inconclusive: 14%
C=CCN(Cc1ccc(SC)cc1)C(=O)C1CCOC1 (stereo not given) | inconclusive: 13%
CN(C)c1oc(-c2ccc([N+](=O)[O-])cc2)nc1C#N | inconclusive: 10%
Nc1ncnc2c1nc(Sc1ccc(Cl)cc1)n2[C@@H]1O[C@@H]2COP(=O)(O)O[C@H]2[C@H]1O | inconclusive: 17%
Cc1ccc(-c2cn3c(n2)sc2cc(C)ccc23)cc1 | inconclusive: 11%
COC(=O)CC[C@H]1CNC(=O)[C@@H]2[C@@H](CCN2Cc2csnn2)N1C | inconclusive: 19%
Cc1ccc(S(=O)(=O)Nc2ccccc2I)cc1[N+](=O)[O-] | inactive
COc1ccc(N2CCN(C(=O)c3cccn4c(=O)c5c6c(sc5nc34)CCCC6)CC2)cc1 | inconclusive: 16%
COc1ccc(CC(=O)Nc2ccc(F)cc2)cc1 | inconclusive: 14%
O=C(NC1CCCCC1)N1C[C@@H]2C[C@H](C1)c1c(-c3ccc(OC(F)(F)F)cc3)ccc(=O)n1C2 | inconclusive: 14%
CN(Cc1cn[nH]c1-c1ccc(F)cc1)CC1CC(=O)N(C2CCCC2)C1 (stereo not given) | inconclusive: 10%
COc1ccc(OC)c(CC(=O)N2CCn3c(C(N)=O)cnc3C2)c1 | inconclusive: 10%
Cc1cccc(NC(=O)c2ccccc2N(Cc2ccccc2)S(=O)(=O)c2ccccc2)c1 | inconclusive: 13%
C1CCCC(N2CCC(N3CCCCCC3)CC2)CC1 | inactive

Seven of these compounds, set out differently:

| Structure (SMILES) | inhibition |
| --- | --- |
| Cc1nc2nc(SCc3cc(=O)n4c(C)cccc4n3)nn2c(C)c1Cc1ccccc1 | inactive |
| COc1ccc(S(=O)(=O)N2C[C@@H]3C[C@H](C2)c2ccc(NC(=O)c4cnccn4)c(=O)n2C3)cc1 | inactive |
| COc1cc([N+](=O)[O-])ccc1N=Cc1nc(-c2ccccc2)oc1O | inconclusive: 11% |
| CC(=O)Nc1ccc(S(=O)(=O)Nc2ccc(F)cc2)cc1 | inactive |
| Cc1ccc(-c2cn3c(n2)sc2cc(C)ccc23)cc1 | inconclusive: 11% |
| O=C(NC1CCCCC1)N1C[C@@H]2C[C@H](C1)c1c(-c3ccc(OC(F)(F)F)cc3)ccc(=O)n1C2 | inconclusive: 14% |
| CN(Cc1cn[nH]c1-c1ccc(F)cc1)CC1CC(=O)N(C2CCCC2)C1 (stereo not given) | inconclusive: 10% |

Remaining list, next part.

Structure (SMILES) | inhibition
c1ccc(-c2nccn2CC2OCCc3ccccc32)nc1 (stereo not given) | inactive
CC(=O)N1c2ccccc2CC1C(=O)NCCc1ccc(S(N)(=O)=O)cc1 (stereo not given) | inconclusive: 13%
O=C1c2ccc(Oc3ccc([N+](=O)[O-])cc3)cc2C(=O)N1c1nccs1 | inactive
CCn1c(CC2CCN(C(=O)c3ccccc3NC(C)C)CC2)n[nH]c1=O | inactive
O=C(C1CCCN(Cc2nc(COc3ccccc3)no2)C1)N1CCOCC1 (stereo not given) | inconclusive: 17%
CCC1Oc2ccccc2N(CC(=O)NCCN2C(C)CCCC2C)C1=O (stereo not given) | inconclusive: 13%
CN1C(=O)C(=O)C(=C(O)c2ccc(Cl)cc2)C1c1ccccc1 (stereo not given) | inconclusive: 13%
Cc1nn(C)cc1CN1CCN(Cc2ccsc2)C(CCO)C1 (stereo not given) | inconclusive: 15%
CCCn1c(-c2ccc(F)cc2)cn2c3c(=O)n(C)c(=O)n(C)c3nc12 | inconclusive: 11%
NC(N)=NS(=O)(=O)c1ccc(N=Cc2ccccc2F)cc1 | inactive
COc1cc(NC(=O)c2cc(CC(C)C)on2)cc(OC)c1OC | inactive
Cc1cccc(N2CCN(C(=O)c3cc(-c4ccncc4)nc4ccccc34)CC2C)c1 (stereo not given) | inactive
COc1ccccc1CCC(=O)N1CCC(CCC(=O)Nc2cccc(C)c2)CC1 | inconclusive: 17%
COc1ccccc1N1CCN([C@@H]2[C@H](O)[C@H](CO)O[C@@H]2CNS(=O)(=O)c2ccc(C)cc2)CC1 | active: 73%
Cc1ccc(NS(=O)(=O)c2ccc3[nH]c(=O)[nH]c3c2)c(C)c1 | inconclusive: 11%
CCOC(=O)C1=C(c2ccccc2)OC(N)=C(C#N)C1c1cc(OC)ccc1F (stereo not given) | inconclusive: 13%
CCOC(=O)C1(Cc2ccc(Cl)cc2)CCN(C(=O)c2sc(C)nc2C)CC1 | inconclusive: 15%
COc1ccc(-c2csc(/C(C#N)=C/c3ccc(Br)o3)n2)cc1 | active: 42%
O=C(NCc1ccccc1Cl)c1ccc(NS(=O)(=O)c2ccccc2)cc1 | inactive
CCCCOc1ccc(C(=O)N=c2sc(C(=O)OCC)c(C)n2C)cc1 | inactive
CS(=O)(=O)c1ccc(-c2cc(NCc3ccccn3)nc3[nH]ccc23)cc1 | inconclusive: 25%
CC(C)(C)c1ccc(-c2cc(C[C@H]3CNCC[C@H]3CC(=O)NCc3cccnc3)no2)cc1 | inactive
OCCCNc1nnc(-c2ccccc2)c2ccccc12 | inconclusive: 16%
CCN1/C(=C/C=c2/sc3nc4ccccc4n3c2=O)C=Cc2ccccc21 | active: 43%

Structure (SMILES) | inhibition
O=C(COc1ccc(Cl)cc1)Nc1ccc(S(=O)(=O)N2CCCC2)cc1 | inconclusive: 22%
Oc1c(C=Nc2ccc(F)cc2)[nH]c2ccc(Br)c(Cl)c12 | active: 30%
Cc1cc(N(C)Cc2cnn(C(C)C)c2)nc(-c2cccnc2)n1 | inconclusive: 19%
O=C(c1ccc2c(c1)OCO2)C1CCCN(Cc2nc(-c3ccccc3)cs2)C1 (stereo not given) | inactive
Cc1cc(C)c2[nH]c(=O)c(CN3CCC4(CCOCC4)CC3)cc2c1 | inconclusive: 13%
Cc1[nH][nH]c(=O)c1CC(=O)N(C)CC1COc2ccccc2O1 (stereo not given) | inactive
COc1ccc2nc3oc(C(=O)NCc4ccco4)cc3cc2c1 | inconclusive: 11%
CCOC(=O)c1c(NC(=O)COc2ccc(F)cc2)sc2c1CCC(C)C2 (stereo not given) | inconclusive: 12%
Cc1cc(Cl)ccc1OC(=O)c1cc2ccccc2oc1=O | inactive
N#CC1=C(SCc2ccccc2)NC(=O)C(C#N)C12CCCCC2 (stereo not given) | inactive
CCc1c(C)sc(NC(=O)CCCn2nc([N+](=O)[O-])c(Cl)c2C)c1C#N | inactive
COc1cc(OC)cc(C(=O)Nc2nc(-c3ccccn3)cs2)c1 | inactive
Cc1ccc(NC(=O)COc2ccc(F)cc2)cc1OCc1cc(=O)n2cccc(C)c2n1 | inconclusive: 16%
CCN1CCN(S(=O)(=O)c2cccc3cccnc23)CC1 | inconclusive: 13%
COc1ccc(NC(=O)Cc2c(C(=O)O)[nH]c3ccc(Cl)cc23)cc1OC | inactive
COc1ccc(C(=O)Nc2ccc3nn(-c4ccc(Cl)cc4)nc3c2)cc1 | active: 37%
COc1ccc(C2C3=C(CCCC3=O)Nc3nc(SCc4ccccc4Cl)nn32)cc1 (stereo not given) | inconclusive: 12%
CCCOc1ccc(C(=O)Nc2ccc(C)cc2[N+](=O)[O-])cc1 | inconclusive: 16%
CCCN(CCC)CCNS(=O)(=O)c1ccc(OCC)c2ncccc12 | inactive
O=C(Nc1ccc(Br)cc1F)C1CCN(C(=O)c2ccc(Cl)cc2Cl)CC1 | inconclusive: 16%
CC(C)Cc1ccc(C2CC(=O)Nc3[nH]ncc32)cc1 (stereo not given) | inactive
Oc1nc(Nc2ccccc2)sc1C=C1C=Nc2ccccc21 | inconclusive: 21%
COc1ccccc1C(=O)Nc1cccc([N+](=O)[O-])c1 | inactive
Cc1nc(CN2C(=O)NC(Cc3ccc(F)cc3)(C3CCNCC3)C2=O)co1 (stereo not given) | inconclusive: 11%

Structure (SMILES) | inhibition
CCOc1ccc(Nc2ncnc3c2cnn3-c2ccc(C)cc2C)cc1 | inactive
O=C1N=C(N2CCCCC2)S/C1=C\c1cccs1 | inconclusive: 21%
CN(CC(=O)N1CCCc2c1c(=O)oc1ccc(O)cc21)C1CCCCC1 | inconclusive: 10%
COc1ccc(F)cc1-c1nccn1CC(OC)c1cccs1 (stereo not given) | inconclusive: 14%
O=C(C(=O)N1CCCC1c1nc(-c2ccccc2)no1)c1ccco1 (stereo not given) | inconclusive: 16%
COc1cc(C(=O)N2N=C(c3ccccc3)CC2c2ccc(N(C)C)cc2)cc(OC)c1OC (stereo not given) | active: 48%
CCN(CC)CCN(C)CC1CC=CCC1 (stereo not given) | inconclusive: 14%
CCCCNC(=O)c1ccc(Cn2c(=O)c3cc(OC)c(OC)cc3n(CC(=O)NC(C)C)c2=O)cc1 | inconclusive: 16%
Nc1ccc(Cc2ccc(N)c(C(=O)O)c2)cc1C(=O)O | inconclusive: 13%
CCN(CC)C(=O)C1CCCN(c2ncnc3c2cnn3-c2ccc(Cl)cc2)C1 (stereo not given) | inconclusive: 11%
CCCC(=O)Oc1ccc(C2C(C(=O)OCC)=C(N)OC3=C2C(=O)CC(C)(C)C3)cc1 (stereo not given) | inactive
COc1cccc(F)c1-c1ccc2cc[nH]c(=O)c2c1 | inconclusive: 11%
Cc1c(Cl)cccc1NC(=O)C(=O)N1CCN(C)CC1 | inconclusive: 11%
Oc1ccc(Cl)cc1C1=NNC(c2ccc(Br)cc2)C1 (stereo not given) | inconclusive: 28%
COc1cc2c(cc1OC)C(C(=O)NC1CCCCCC1)C(c1ccccc1F)N(C)C2=O (stereo not given) | inconclusive: 11%
CN1C[C@@H](NC(=O)Nc2ccccc2)C[C@H]1c1nc(-c2ccc(F)cc2)no1 | inactive
COCc1cn(CC2CCN(C(=O)Nc3cccc(OC)c3)CC2)nn1 | inactive
O=C(c1cccc(Br)c1)N1CCN=C1SCc1ccccc1F | inactive
O=S(=O)(c1ccccc1)c1nc(-c2ccc(F)cc2)oc1N1CCOCC1 | inconclusive: 13%
CN(Cc1ccccc1)c1ncccc1CNC(=O)C1CCCCN1C (stereo not given) | inactive
C=CC1(C)CC(=O)C2(O)C(C)(O1)C(OC(C)=O)C(O)C1C(C)(C)CCC(O)C12C (stereo not given) | inconclusive: 12%
CC(NC(=O)c1cc2n(n1)CCCN(C)C2)c1ccccc1C(F)(F)F (stereo not given) | inconclusive: 12%
Cn1ccnc1SCCn1ccnc1-c1cccc(Cl)c1 | inconclusive: 15%
